Measured values taken from article PMC8210616, “Adjuvant-free peptide vaccine targeting Clec9a on dendritic cells can induce robust antitumor immune response through Syk/IL-21 axis” (Theranostics, 2021).
Results are given in words; binding and its absence hold for the method and conditions named. Some entries that bind do so weakly or less than the wild type.

Molecular target: T1, mouse Clec9a (mClec9a) on transfected HEK-293T cells (mouse) (UniProt Q8BRU4)
T1 sequence: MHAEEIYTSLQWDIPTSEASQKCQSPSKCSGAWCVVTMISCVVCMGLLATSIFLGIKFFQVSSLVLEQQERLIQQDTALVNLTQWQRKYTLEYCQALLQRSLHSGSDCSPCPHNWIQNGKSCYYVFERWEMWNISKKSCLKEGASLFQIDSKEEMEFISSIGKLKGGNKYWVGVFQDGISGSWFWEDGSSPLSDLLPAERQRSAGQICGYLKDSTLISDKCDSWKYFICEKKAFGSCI
Assay: flow cytometry on cells; biotinylated peptides (100 µM) incubated with transiently transfected HEK-293T cells (3 × 10^5, Fc receptors blocked with rat serum) for 30 min on ice, washed three times with FCS buffer containing 2 mM EDTA, stained with SA-PE; only the binder purified

Binder: WPRFHSSVRHTHGGGK (biotin on the C-terminal lysine (K^biotin)) [CBP-12^biotin (12-mer Clec9a binding peptide, …-GGG-K^biotin)]
- binding: binds
